Experimental data taken from publication doi:10.1101/2023.01.05.522938.
Results are given in words; binding and its absence hold for the method and conditions named. Binding seen in cells or lysates may run through a third protein. Here binding means that the protein was enriched with, or labelled near, the bait; the list need not be complete.

Experiments:
[1] = target: CPN60A (Chlamydomonas reinhardtii (endogenous in strain CW15(2)/CF185)); test: affinity purification with mass spectrometry
[2] = target: CPN20 (Chlamydomonas reinhardtii (endogenous in strain CW15(2)/CF185)); test: affinity purification with mass spectrometry

B1: GAPA1 (glyceraldehyde-3-phosphate dehydrogenase A subunit) (protein, UniProt P50362 35-374)
chain: EKKIRVAINGFGRIGRNFLRCWHGRQNTLLDVVAINDSGGVKQASHLLKYDSTLGTFAADVKIVDDSHISVDGKQIKIVSSRDPLQLPWKEMNIDLVIEGTGVFIDKVGAGKHIQAGASKVLITAPAKDKDIPTFVVGVNEGDYKHEYPIISNASCTTNCLAPFVKVLEQKFGIVKGTMTTTHSYTGDQRLLDASHRDLRRARAAALNIVPTTTGAAKAVSLVLPSLKGKLNGIALRVPTPTVSVVDLVVQVEKKTFAEEVNAAFREAANGPMKGVLHVEDAPLVSIDFKCTDQSTSIDASLTMVMGDDMVKVVAWYDNEWGYSQRVVDLAEVTAKKWVA
[1]
  binding: binds

B2: ATPC (gamma subunit of the CF1 head of the chloroplast ATP-synthase) (protein, UniProt P12113 36-358)
chain: GLKEVRDRIASVKNTQKITDAMKLVAAAKVRRAQEAVVNGRPFSENLVKVLYGVNQRVRQEDVDSPLCAVRPVKSVLLVVLTGDRGLCGGYNNFIIKKTEARYRELTAMGVKVNLVCVGRKGAQYFARRKQYNIVKSFSLGAAPSTKEAQGIADEIFASFIAQESDKVELVFTKFISLINSNPTIQTLLPMTPMGELCDVDGKCVDAADDEIFKLTTKGGEFAVEREKTTIETEALDPSLIFEQEPAQILDALLPLYMSSCLLRSLQEALASELAARMNAMNNASDNAKELKKGLTVQYNKQRQAKITQELAEIVGGAAATSG
[2]
  binding: binds
[1]
  binding: binds
